According to article PMC7819943, “Rice protein-binding microarrays: a tool to detect cis-acting elements near promoter regions in rice”:
The other results are listed elsewhere or left out.

Protein sequences, listed by entry. Tags and fused reporters are not part of them.
UniProt Q0JBA9, entry or part of it: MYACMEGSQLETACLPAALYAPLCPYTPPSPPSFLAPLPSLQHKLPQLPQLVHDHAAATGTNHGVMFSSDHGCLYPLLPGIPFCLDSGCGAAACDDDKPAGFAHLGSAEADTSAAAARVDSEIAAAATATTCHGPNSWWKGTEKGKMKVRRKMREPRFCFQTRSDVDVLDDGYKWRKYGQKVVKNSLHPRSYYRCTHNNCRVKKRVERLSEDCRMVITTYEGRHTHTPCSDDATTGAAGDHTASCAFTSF

The sequences below were run against OsWRKY34 (Oryza sativa, UniProt Q0JBA9 1-250) (assay: protein-binding microarray (RPBM); PBS, 2% BSA, 51.3 ng/ul salmon testes DNA, 50 uM zinc acetate, 200 nM TF, 25 C, 1 h; high values mean tight binding). Conditions: protein: recombinant; tags: N-terminal polyhistidine and DsRed monomer fusion (pET32a); label: CyDye5-dUTP incorporated in the synthesized complementary strand; 3' TTTTT single-stranded linker to array surface; dsDNA, one strand shown.
How it was run: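 The binding signal for each feature is its fluorescence intensity in arbitrary units. An Axon 4000B scanner was used to read a custom Agilent array that had been made double-stranded with Cy5-dUTP primer extension, blocked with 2% BSA, incubated at 25 °C for 1 h with 200 nM protein in PBS, 2% BSA, salmon testes DNA and 50 µM zinc acetate, and washed. The protein was an N-terminal polyhistidine–DsRed transcription factor fusion from E. coli BL21-CodonPlus, purified on Ni–NTA.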

| Sequence | binding signal |
| --- | --- |
| ATGACGTCCAAAGCTTCACCTTTTTTTTTATATATAAACCCGGAGTCACCTAGTGCAG | 8260 fluorescence intensity (a.u.) |
| ACCTTTCACGCCGCCGCACTACCTCTCCACCCTCTCGCGGCGGAGTCACCTAGTGCAG | 8380 fluorescence intensity (a.u.) |
| GTTGCATTGTATAACTCTAGTACTCTACTTTGTTTTAATACGGAGTCACCTAGTGCAG | 8150 fluorescence intensity (a.u.) |
| GGGAGTGTGGAGGTGTTGTGCTGCGGCGTGGGTGTGTTGGCGGAGTCACCTAGTGCAG | 8640 fluorescence intensity (a.u.) |
| TCTGTTTGTTCTATTTGTTTGACCTTTTCGTGTAAAGGGTCGGAGTCACCTAGTGCAG | 8400 fluorescence intensity (a.u.) |
| TGCAGTGTGTGTATGATAGGTGTGACCATATATTAATAGTCGGAGTCACCTAGTGCAG | 9480 fluorescence intensity (a.u.) |
| GTTTCCTTAGTTCCTTCGAAACAAGATTGTTTTTTATCACCGGAGTCACCTAGTGCAG | 8470 fluorescence intensity (a.u.) |
| ACTCTCTCACCTTCTCACGCCTCATCGCTTTGTTCTCATCCGGAGTCACCTAGTGCAG | 9840 fluorescence intensity (a.u.) |
| GCCGCCCACCGCTTGACCTCCCTCCGTGGCGCTGCCTCCACGGAGTCACCTAGTGCAG | 8320 fluorescence intensity (a.u.) |
| CGCCGCGTTCCCAACTCCATGTCCCGTCTTCTTCCCTGAACGGAGTCACCTAGTGCAG | 13900 fluorescence intensity (a.u.) |
| GTGGTAATTCTGTAGTTGTTTTTTTTTCGAGTTCTTGTGTCGGAGTCACCTAGTGCAG | 10300 fluorescence intensity (a.u.) |
| TATGGCAATCGTTTTTTCCTTAATACTTGAATTCTAGATACGGAGTCACCTAGTGCAG | 8180 fluorescence intensity (a.u.) |
| TCTCTCCCTGTGAATTGTGGGTGTGTTTAGTTCGCGAAAACGGAGTCACCTAGTGCAG | 10300 fluorescence intensity (a.u.) |
| TCAGGTCAATCCGGCCGTTTCATACGCGCGACTCCGCGAGCGGAGTCACCTAGTGCAG | 9420 fluorescence intensity (a.u.) |
| AAGACGAATGGTCAAACATTGTGGAAAAGTCAACGGCATTCGGAGTCACCTAGTGCAG | 10000 fluorescence intensity (a.u.) |
| AACTATCAACACCATTGCCTATTGCCGCACCACGCTATCTCGGAGTCACCTAGTGCAG | 10400 fluorescence intensity (a.u.) |
| TCCCTCCACCACCACCACCACCACCGCACAACCCAGCTTTCGGAGTCACCTAGTGCAG | 9220 fluorescence intensity (a.u.) |
| TTTCCGATTATTTTATTTATTTTCCTTCCATATAAGCCTTCGGAGTCACCTAGTGCAG | 9000 fluorescence intensity (a.u.) |
| TCTGCCATTCACTTCGGGTTGCTGCCCTTTTTTTGTTCTTCGGAGTCACCTAGTGCAG | 12100 fluorescence intensity (a.u.) |
| GTGCTCCGCGCCGTCGCCTCCGCGCCCCTGCCAGCTGCTCCGGAGTCACCTAGTGCAG | 9810 fluorescence intensity (a.u.) |
| TAACTTCGTCTGCTGCTCATTTTTCACCATCAAATTCCTACGGAGTCACCTAGTGCAG | 10800 fluorescence intensity (a.u.) |
| ATCTCGTTTAGTTTGGACTAGTCCACTTAAATTACTCAAACGGAGTCACCTAGTGCAG | 8660 fluorescence intensity (a.u.) |
| AGTCCATTTAATTTCTAGTTTGTTATTGATTTCTATATAACGGAGTCACCTAGTGCAG | 9110 fluorescence intensity (a.u.) |
| GCCGACCGCCACCGCCCCGCGCCGCCTTCCCCGCCTCCGCCGGAGTCACCTAGTGCAG | 8420 fluorescence intensity (a.u.) |
| CCACCGGCCGCCTCGTCCTCTCGCCATGGCCGCACCATCCCGGAGTCACCTAGTGCAG | 8600 fluorescence intensity (a.u.) |
| TGCTCTACTCTCGATTTCCATTGTCAAAGGTAAGGTCACTCGGAGTCACCTAGTGCAG | 8770 fluorescence intensity (a.u.) |
| GTCGTTTGATGATAATGCCCACTCTATTACGTGGCCTGAACGGAGTCACCTAGTGCAG | 8500 fluorescence intensity (a.u.) |

| Sequence | binding signal |
| --- | --- |
| AAAATCTGGGCTGCCATATCTCATTCAAGCTTGACCGTTACGGAGTCACCTAGTGCAG | 8960 fluorescence intensity (a.u.) |
| TCCAACGAAGCCCAGCAGAACTTTTGTCCGTTTTCTTTTTCGGAGTCACCTAGTGCAG | 11400 fluorescence intensity (a.u.) |
| GTTCGTGCGTTTTCTTGGATGAGATTTGGGGTGACGTCCTCGGAGTCACCTAGTGCAG | 9540 fluorescence intensity (a.u.) |
| CTCCCGCCGCGACTCGCCGCCGCGCGCGGCATCTCCGGCCCGGAGTCACCTAGTGCAG | 8820 fluorescence intensity (a.u.) |
| CATTTTTCTCCGGGACCTGCCAATTTCCAGCGAGCAAGTTCGGAGTCACCTAGTGCAG | 8780 fluorescence intensity (a.u.) |
| AATCCAGCGGAAAGCAACCCCGTCCGCGCGCTACGCCACCCGGAGTCACCTAGTGCAG | 8380 fluorescence intensity (a.u.) |
| GAAGAAGCATGGCCAGCTTCACATATTGACCGCACATACACGGAGTCACCTAGTGCAG | 8460 fluorescence intensity (a.u.) |
| GCATTTCTTTTTTCCCATGGTAGGATACTTCCACCCAGCTCGGAGTCACCTAGTGCAG | 10100 fluorescence intensity (a.u.) |
| TCTCCTTGATTCCCGCTTCTCACACGCATTATTTGTTTCACGGAGTCACCTAGTGCAG | 18500 fluorescence intensity (a.u.) |
| CTCTCATTGTATCTATCATAAATTTCTTACTGTACTTGTCCGGAGTCACCTAGTGCAG | 8570 fluorescence intensity (a.u.) |
| TTCCCTTGGCCATCGTCTCTCTCTTGCCTTCTTCTTCTCACGGAGTCACCTAGTGCAG | 8370 fluorescence intensity (a.u.) |
| TTCTGCCGCCGTCGGTTTCGGCTTGAGCTCTGGGTTTATTCGGAGTCACCTAGTGCAG | 9360 fluorescence intensity (a.u.) |
| TTCAGGTGATCTTCCCATCATTATTTCTTGTGCTAGTCTTCGGAGTCACCTAGTGCAG | 12100 fluorescence intensity (a.u.) |
| CTCTCCTCCTTTCTTCTCCAAGTCAACAGTTCCTACGCTACGGAGTCACCTAGTGCAG | 9050 fluorescence intensity (a.u.) |
| GCTCTCCGCCGCCGCCGCCGCCGTCTCCAACTTCAAGATGCGGAGTCACCTAGTGCAG | 10100 fluorescence intensity (a.u.) |
| CTTGCCACGTTAAGACCCAAGGCTACGTTACCTGCACTTTCGGAGTCACCTAGTGCAG | 8580 fluorescence intensity (a.u.) |
| ATTTTCCGTCCCCTTACCACGCTATTTCTCACGATTAATACGGAGTCACCTAGTGCAG | 8340 fluorescence intensity (a.u.) |
| ATTGATTTTTCCTTTTATGACGGCTCCTTTCCTTGGAATCCGGAGTCACCTAGTGCAG | 9280 fluorescence intensity (a.u.) |
| ACATGTTACTCCGCAGAAGTAGAGGCGTTTTGTTTTTGACCGGAGTCACCTAGTGCAG | 9420 fluorescence intensity (a.u.) |
| ATGGTTGTGATTTGTTTAGGTCGAGTAAAGGAGGAATTCCCGGAGTCACCTAGTGCAG | 8840 fluorescence intensity (a.u.) |
| TCAATTTATCTGGCATCTGGCGCTTTTTACTCATTTAAGACGGAGTCACCTAGTGCAG | 9630 fluorescence intensity (a.u.) |
| CCACTTAGATGCCCACGCGTTTATTAATCGCCACCACCTTCGGAGTCACCTAGTGCAG | 8680 fluorescence intensity (a.u.) |
| TGCTCCATGTATGTGTCTAAATATTTGATGTGATGTTTTTCGGAGTCACCTAGTGCAG | 10200 fluorescence intensity (a.u.) |
| CATCCAGGCTCCGCCGCTGCCACCGCTACCCTTTTTACTACGGAGTCACCTAGTGCAG | 12400 fluorescence intensity (a.u.) |
| AAAAGCAAAAGCAAAAGAAACACGTCCTTATTCCTCTCTCCGGAGTCACCTAGTGCAG | 8210 fluorescence intensity (a.u.) |
| TTTCATGCGTGACTTATCTTTTTAATTTTTTTTATATTTTCGGAGTCACCTAGTGCAG | 8150 fluorescence intensity (a.u.) |
| TGGTGTTGTGTATAATATTAGTAGGAGGGGAGCCTTGGGGCGGAGTCACCTAGTGCAG | 10900 fluorescence intensity (a.u.) |
